Paper PMC5175178, “Development of an in-vivo active reversible butyrylcholinesterase inhibitor” (Scientific Reports, 2016)
Counter-ions that a name gives are not always drawn.

Tested on: scopolamine-induced memory impairment in mice
Assay: Passive avoidance task, scopolamine-induced memory impairment
Format: in vivo, Albino Swiss (CD–1 Krf) mice
Conditions: scopolamine-treated control, 1 mg kg^−1 IP (vehicle-treated 178 s)

SMILES: CN1[C@@H]2C[C@@H](OC(=O)[C@H](CO)c3ccccc3)C[C@H]1[C@@H]1O[C@@H]12 [scopolamine, (−)-Scopolamine hydrobromide]
- step-through latency, retention trial: 23 s
